This passage reports binding results from PMC8546539, “CK2 Phosphorylation of Human Papillomavirus 16 E2 on Serine 23 Promotes Interaction with TopBP1 and Is Critical for E2 Interaction with Mitotic Chromatin and the Viral Life Cycle” (mBio, 2021).

Sequences of proteins named here, by UniProt entry; tags and fusion partners are left off. Residues count along the entry.
UniProt P46934: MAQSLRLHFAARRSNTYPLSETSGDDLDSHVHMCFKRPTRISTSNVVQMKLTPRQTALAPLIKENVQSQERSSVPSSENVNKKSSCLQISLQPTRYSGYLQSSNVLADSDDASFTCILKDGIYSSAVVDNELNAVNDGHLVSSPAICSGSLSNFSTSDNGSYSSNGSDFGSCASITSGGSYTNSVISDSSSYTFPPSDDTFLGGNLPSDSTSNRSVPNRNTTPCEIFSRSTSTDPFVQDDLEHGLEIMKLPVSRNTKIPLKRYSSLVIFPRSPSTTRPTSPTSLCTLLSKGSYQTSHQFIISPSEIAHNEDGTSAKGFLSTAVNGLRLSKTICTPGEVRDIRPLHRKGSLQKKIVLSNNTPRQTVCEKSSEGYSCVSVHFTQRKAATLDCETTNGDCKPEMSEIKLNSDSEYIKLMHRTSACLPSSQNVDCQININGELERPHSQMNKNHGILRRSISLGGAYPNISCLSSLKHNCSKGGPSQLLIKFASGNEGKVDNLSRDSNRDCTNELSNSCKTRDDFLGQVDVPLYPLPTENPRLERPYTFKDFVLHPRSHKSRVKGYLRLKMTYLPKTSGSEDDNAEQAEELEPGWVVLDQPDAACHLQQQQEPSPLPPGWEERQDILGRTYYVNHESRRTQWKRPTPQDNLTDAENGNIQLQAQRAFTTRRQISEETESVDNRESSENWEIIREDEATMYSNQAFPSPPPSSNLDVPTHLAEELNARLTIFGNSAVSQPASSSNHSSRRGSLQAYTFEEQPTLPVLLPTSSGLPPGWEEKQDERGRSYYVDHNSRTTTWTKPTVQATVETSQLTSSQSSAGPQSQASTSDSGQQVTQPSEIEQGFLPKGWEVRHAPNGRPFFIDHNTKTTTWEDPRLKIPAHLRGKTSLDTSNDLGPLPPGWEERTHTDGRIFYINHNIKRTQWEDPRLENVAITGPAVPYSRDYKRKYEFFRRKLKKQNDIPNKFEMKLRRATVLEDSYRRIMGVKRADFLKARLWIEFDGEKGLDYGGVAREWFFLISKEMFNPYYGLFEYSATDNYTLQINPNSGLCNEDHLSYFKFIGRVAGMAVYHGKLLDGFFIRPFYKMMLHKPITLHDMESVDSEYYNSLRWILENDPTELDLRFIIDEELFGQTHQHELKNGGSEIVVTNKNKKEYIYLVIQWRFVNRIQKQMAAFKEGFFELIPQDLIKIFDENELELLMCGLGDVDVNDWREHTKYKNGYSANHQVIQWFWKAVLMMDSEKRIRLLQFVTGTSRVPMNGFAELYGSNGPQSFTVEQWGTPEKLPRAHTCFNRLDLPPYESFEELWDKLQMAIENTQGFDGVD
UniProt P03120, residues 1-200: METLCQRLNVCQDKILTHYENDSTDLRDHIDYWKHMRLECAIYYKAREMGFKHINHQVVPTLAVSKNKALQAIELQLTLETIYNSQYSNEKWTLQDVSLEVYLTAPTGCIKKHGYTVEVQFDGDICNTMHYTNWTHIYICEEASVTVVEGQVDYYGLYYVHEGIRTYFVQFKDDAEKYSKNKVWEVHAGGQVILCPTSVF

No constants are given. Whether binding was seen depends on the method and setting.

The target in experiment [1] is GST-tagged NEDD4 E3 ligase (UniProt P46934). The experiment is described as follows: pull-down; both purified.
Experiment [2] has the same target. The experiment is described as follows: pull-down; GST pull-down as in Fig. 2A following 1 h at 30°C with CK2 enzyme, 200 μM ATP and 30 mM MgCl2, and controls without cofactors or without enzyme; both purified.

For “His-E2-WT (amino acids 1 to 200), not phosphorylated (from UniProt P03120 1-200) (domain or fragment)”, in experiment [1], the binding entry is “no binding (tested: 11 pmol E2, 0.65 pmol GST-NEDD4)”.

On to “His-E2-WT (amino acids 1 to 200) phosphorylated in vitro by CK2 (from UniProt P03120 1-200) (domain or fragment)”, for which the binding result in experiment [2] was “no binding”.
